# This is one part of the list.
# B1: BSR4 (Toxoplasma gondii), Q95NL6 (protein)
# chain: MVMMGSMQQRRGGLRSNARQLLAVCMSGVVFFSSGQAVADNLLEGLLHRTLQQQVEVTSRLTVAGSDAKCDFFTPATQDSPPVSGSLTLSKGRMTATFECSATQALSISTIPTNIEQNVCDPKKTTNGTVCQFGANGSAGTEVTLKDLLETDRIVNWKVNEQREESNKSQKWSLELHNEDLPLTDKAFVVGCQATSAARGTESGKTAACKLTVNVEARASSLAENNVVTCAYGKGSNPNPVEVEMSTEKNTLTINCGSDGSLQPTTYAEEYCVADSKDVNRCSTTRFVEIFPKFLKSWWVTETQKRTSATLTIPQTDLPEADQQFLVGCVPKKTAPEDPKKDKESGTETGAPTSCTVLVTVKAASSASHASPTVQILAAASSAAA
# Experiments:
# Assay in all cases: glycan array binding signal (z-score within array); higher = stronger binding
# Conditions in all cases: glycan notation: IUPAC condensed, linker removed
# Fuc(a1-2)Gal = molecular target: Fuc(a1-2)Gal
# Procedure, shortened: (§1)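 The binding signal is a Z-score computed within each array and averaged over linkers. Arrays of the same protein sequence at different concentrations or buffers were also averaged together. Data originate from 3228 arrays in the Consortium for Functional Glycomics database, kept only where the protein sequence was available.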
# Fuc(a1-2)Gal(b1-3)GalNAc = molecular target: Fuc(a1-2)Gal(b1-3)GalNAc
# Procedure, shortened: as §1
# [1] = molecular target: Fuc(a1-2)Gal(b1-3)GalNAc(a1-3)[Fuc(a1-2)]Gal(b1-4)Glc
# Procedure, shortened: as §1
# [2] = molecular target: Fuc(a1-2)Gal(b1-3)GalNAc(a1-3)[Fuc(a1-2)]Gal(b1-4)GlcNAc
# Procedure, shortened: as §1
# [3] = molecular target: Fuc(a1-2)Gal(b1-3)GalNAc(b1-3)Gal
# Procedure, shortened: as §1
# [4] = molecular target: Fuc(a1-2)Gal(b1-3)GalNAc(b1-3)Gal(a1-4)Gal(b1-4)Glc
# Procedure, shortened: as §1
# [5] = molecular target: Fuc(a1-2)Gal(b1-3)GalNAc(b1-4)[Neu5Ac(a2-3)]Gal(b1-4)Glc
# Procedure, shortened: as §1
# Fuc(a1-2)Gal(b1-3)GlcNAc = molecular target: Fuc(a1-2)Gal(b1-3)GlcNAc
# Procedure, shortened: as §1
# [6] = molecular target: Fuc(a1-2)Gal(b1-3)GlcNAc(b1-2)Man(a1-3)[Fuc(a1-2)Gal(b1-3)GlcNAc(b1-2)Man(a1-6)]Man(b1-4)GlcNAc(b1-4)GlcNAc
# Procedure, shortened: as §1
# [7] = molecular target: Fuc(a1-2)Gal(b1-3)GlcNAc(b1-3)Gal(b1-4)Glc
# Procedure, shortened: as §1
# [8] = molecular target: Fuc(a1-2)Gal(b1-3)GlcNAc(b1-3)[Fuc(a1-3)[Gal(b1-4)]GlcNAc(b1-6)]Gal(b1-4)Glc
# Procedure, shortened: as §1
# [9] = molecular target: Fuc(a1-2)Gal(b1-3)[Fuc(a1-4)]GlcNAc
# Procedure, shortened: as §1
# [10] = molecular target: Fuc(a1-2)Gal(b1-3)[Fuc(a1-4)]GlcNAc(b1-2)Man(a1-3)[Fuc(a1-2)Gal(b1-3)[Fuc(a1-4)]GlcNAc(b1-2)Man(a1-6)]Man(b1-4)GlcNAc(b1-4)GlcNAc
# Procedure, shortened: as §1
# [11] = molecular target: Fuc(a1-2)Gal(b1-3)[Fuc(a1-4)]GlcNAc(b1-3)[Fuc(a1-3)[Gal(b1-4)]GlcNAc(b1-6)]Gal(b1-4)Glc
# Procedure, shortened: as §1
# [12] = molecular target: Fuc(a1-2)Gal(b1-3)[Fuc(a1-4)]GlcNAc(b1-3)[Gal(b1-4)GlcNAc(b1-6)]Gal(b1-4)Glc
# Procedure, shortened: as §1
# Fuc(a1-2)Gal(b1-4)Glc = molecular target: Fuc(a1-2)Gal(b1-4)Glc
# Procedure, shortened: as §1
# Fuc(a1-2)Gal(b1-4)Glc6S = molecular target: Fuc(a1-2)Gal(b1-4)Glc6S
# Procedure, shortened: as §1
# Fuc(a1-2)Gal(b1-4)GlcNAc = molecular target: Fuc(a1-2)Gal(b1-4)GlcNAc
# Procedure, shortened: as §1
# [13] = molecular target: Fuc(a1-2)Gal(b1-4)GlcNAc(b1-2)Man(a1-3)[Fuc(a1-2)Gal(b1-4)GlcNAc(b1-2)Man(a1-6)]Man(b1-4)GlcNAc(b1-4)GlcNAc
# Procedure, shortened: as §1
# [14] = molecular target: Fuc(a1-2)Gal(b1-4)GlcNAc(b1-3)Gal(b1-4)GlcNAc
# Procedure, shortened: as §1
# [15] = molecular target: Fuc(a1-2)Gal(b1-4)GlcNAc(b1-3)Gal(b1-4)GlcNAc(b1-3)Gal(b1-4)GlcNAc
# Procedure, shortened: as §1
# [16] = molecular target: Fuc(a1-2)Gal(b1-4)GlcNAc(b1-3)GalNAc
# Procedure, shortened: as §1
# [17] = molecular target: Fuc(a1-2)Gal(b1-4)GlcNAc6S
# Procedure, shortened: as §1
# [18] = molecular target: Fuc(a1-2)Gal(b1-4)[Fuc(a1-3)]GlcNAc
# Procedure, shortened: as §1
# [19] = molecular target: Fuc(a1-2)Gal(b1-4)[Fuc(a1-3)]GlcNAc(b1-2)Man(a1-3)[Fuc(a1-2)Gal(b1-4)[Fuc(a1-3)]GlcNAc(b1-2)Man(a1-6)]Man(b1-4)GlcNAc(b1-4)GlcNAc
# Procedure, shortened: as §1
# [20] = molecular target: Fuc(a1-2)Gal(b1-4)[Fuc(a1-3)]GlcNAc(b1-3)Gal(b1-4)[Fuc(a1-3)]GlcNAc
# Procedure, shortened: as §1
# [21] = molecular target: Fuc(a1-2)Gal(b1-4)[Fuc(a1-3)]GlcNAc(b1-3)Gal(b1-4)[Fuc(a1-3)]GlcNAc(b1-3)Gal(b1-4)[Fuc(a1-3)]GlcNAc
# Procedure, shortened: as §1
# Fuc(a1-2)Gal6S(b1-4)Glc = molecular target: Fuc(a1-2)Gal6S(b1-4)Glc
# Procedure, shortened: as §1
# [22] = molecular target: Fuc(a1-2)Gal6S(b1-4)Glc6S
# Procedure, shortened: as §1
# [23] = molecular target: Fuc(a1-2)Gal6S(b1-4)GlcNAc
# Procedure, shortened: as §1
# Fuc(a1-2)[Gal(a1-3)]Gal = molecular target: Fuc(a1-2)[Gal(a1-3)]Gal
# Procedure, shortened: as §1
# [24] = molecular target: Fuc(a1-2)[Gal(a1-3)]Gal(b1-3)GlcNAc
# Procedure, shortened: as §1
# [25] = molecular target: Fuc(a1-2)[Gal(a1-3)]Gal(b1-3)GlcNAc(b1-2)Man(a1-3)[Fuc(a1-2)[Gal(a1-3)]Gal(b1-3)GlcNAc(b1-2)Man(a1-6)]Man(b1-4)GlcNAc(b1-4)GlcNAc
# Procedure, shortened: as §1
# [26] = molecular target: Fuc(a1-2)[Gal(a1-3)]Gal(b1-4)Glc
# Procedure, shortened: as §1
# [27] = molecular target: Fuc(a1-2)[Gal(a1-3)]Gal(b1-4)GlcNAc
# Procedure, shortened: as §1
# [28] = molecular target: Fuc(a1-2)[Gal(a1-3)]Gal(b1-4)GlcNAc(b1-2)Man(a1-3)[Fuc(a1-2)[Gal(a1-3)]Gal(b1-4)GlcNAc(b1-2)Man(a1-6)]Man(b1-4)GlcNAc(b1-4)GlcNAc
# Procedure, shortened: as §1
# [29] = molecular target: Fuc(a1-2)[Gal(a1-3)]Gal(b1-4)[Fuc(a1-3)]GlcNAc
# Procedure, shortened: as §1
# [30] = molecular target: Fuc(a1-2)[Gal(a1-4)]Gal(b1-4)GlcNAc
# Procedure, shortened: as §1
# [31] = molecular target: Fuc(a1-2)[GalNAc(a1-3)]Gal
# Procedure, shortened: as §1
# [32] = molecular target: Fuc(a1-2)[GalNAc(a1-3)]Gal(b1-3)GalNAc(a1-3)[Fuc(a1-2)]Gal(b1-4)GlcNAc
# Procedure, shortened: as §1
# [33] = molecular target: Fuc(a1-2)[GalNAc(a1-3)]Gal(b1-3)GlcNAc
# Procedure, shortened: as §1
# [34] = molecular target: Fuc(a1-2)[GalNAc(a1-3)]Gal(b1-3)GlcNAc(b1-2)Man(a1-3)[Fuc(a1-2)[GalNAc(a1-3)]Gal(b1-3)GlcNAc(b1-2)Man(a1-6)]Man(b1-4)GlcNAc(b1-4)GlcNAc
# Procedure, shortened: as §1
# [35] = molecular target: Fuc(a1-2)[GalNAc(a1-3)]Gal(b1-4)Glc
# Procedure, shortened: as §1
# [36] = molecular target: Fuc(a1-2)[GalNAc(a1-3)]Gal(b1-4)GlcNAc
# Procedure, shortened: as §1
# [37] = molecular target: Fuc(a1-2)[GalNAc(a1-3)]Gal(b1-4)GlcNAc(b1-2)Man(a1-3)[Fuc(a1-2)[GalNAc(a1-3)]Gal(b1-4)GlcNAc(b1-2)Man(a1-6)]Man(b1-4)GlcNAc(b1-4)GlcNAc
# Procedure, shortened: as §1
binder,measurement,setting,value
B1,glycan array binding signal (z-score),Fuc(a1-2)Gal,0.122
same,glycan array binding signal (z-score),Fuc(a1-2)Gal(b1-3)GalNAc,0.321
same,glycan array binding signal (z-score),[1],0.305
same,glycan array binding signal (z-score),[2],-0.631
same,glycan array binding signal (z-score),[3],0.218
same,glycan array binding signal (z-score),[4],-0.249
same,glycan array binding signal (z-score),[5],-0.267
same,glycan array binding signal (z-score),Fuc(a1-2)Gal(b1-3)GlcNAc,-0.078
same,glycan array binding signal (z-score),[6],0.642
same,glycan array binding signal (z-score),[7],-0.546
same,glycan array binding signal (z-score),[8],-0.452
same,glycan array binding signal (z-score),[9],0.187
same,glycan array binding signal (z-score),[10],0.444
same,glycan array binding signal (z-score),[11],-0.043
same,glycan array binding signal (z-score),[12],-0.244
same,glycan array binding signal (z-score),Fuc(a1-2)Gal(b1-4)Glc,-0.73
same,glycan array binding signal (z-score),Fuc(a1-2)Gal(b1-4)Glc6S,0.481
same,glycan array binding signal (z-score),Fuc(a1-2)Gal(b1-4)GlcNAc,-0.406
same,glycan array binding signal (z-score),[13],0.28
same,glycan array binding signal (z-score),[14],0.36
same,glycan array binding signal (z-score),[15],0.028
same,glycan array binding signal (z-score),[16],0.241
same,glycan array binding signal (z-score),[17],-0.516
same,glycan array binding signal (z-score),[18],0.395
same,glycan array binding signal (z-score),[19],1.41
same,glycan array binding signal (z-score),[20],0.181
same,glycan array binding signal (z-score),[21],0.448
same,glycan array binding signal (z-score),Fuc(a1-2)Gal6S(b1-4)Glc,0.399
same,glycan array binding signal (z-score),[22],0.24
same,glycan array binding signal (z-score),[23],0.894
same,glycan array binding signal (z-score),Fuc(a1-2)[Gal(a1-3)]Gal,0.054
same,glycan array binding signal (z-score),[24],-0.527
same,glycan array binding signal (z-score),[25],-0.282
same,glycan array binding signal (z-score),[26],-0.614
same,glycan array binding signal (z-score),[27],0.306
same,glycan array binding signal (z-score),[28],-0.25
same,glycan array binding signal (z-score),[29],1.17
same,glycan array binding signal (z-score),[30],-0.293
same,glycan array binding signal (z-score),[31],0.465
same,glycan array binding signal (z-score),[32],0.417
same,glycan array binding signal (z-score),[33],0.482
same,glycan array binding signal (z-score),[34],-0.427
same,glycan array binding signal (z-score),[35],0.303
same,glycan array binding signal (z-score),[36],-0.073
same,glycan array binding signal (z-score),[37],-0.071

# Some of the entries so far, as tab-separated lines.
binder	measurement	setting	value
B1	glycan array binding signal (z-score)	[23]	0.894
same	glycan array binding signal (z-score)	[25]	-0.282
